These are yes or no findings as the source states them, for the method shown. In cells and extracts the contact can be indirect. Binding can be weak; no strength is given.

Chains of the proteins cited; added tags and fusions are not shown. Lines headed by an entry give the natural chain unless they say otherwise; changes in a name come on top.
UniProt Q61771: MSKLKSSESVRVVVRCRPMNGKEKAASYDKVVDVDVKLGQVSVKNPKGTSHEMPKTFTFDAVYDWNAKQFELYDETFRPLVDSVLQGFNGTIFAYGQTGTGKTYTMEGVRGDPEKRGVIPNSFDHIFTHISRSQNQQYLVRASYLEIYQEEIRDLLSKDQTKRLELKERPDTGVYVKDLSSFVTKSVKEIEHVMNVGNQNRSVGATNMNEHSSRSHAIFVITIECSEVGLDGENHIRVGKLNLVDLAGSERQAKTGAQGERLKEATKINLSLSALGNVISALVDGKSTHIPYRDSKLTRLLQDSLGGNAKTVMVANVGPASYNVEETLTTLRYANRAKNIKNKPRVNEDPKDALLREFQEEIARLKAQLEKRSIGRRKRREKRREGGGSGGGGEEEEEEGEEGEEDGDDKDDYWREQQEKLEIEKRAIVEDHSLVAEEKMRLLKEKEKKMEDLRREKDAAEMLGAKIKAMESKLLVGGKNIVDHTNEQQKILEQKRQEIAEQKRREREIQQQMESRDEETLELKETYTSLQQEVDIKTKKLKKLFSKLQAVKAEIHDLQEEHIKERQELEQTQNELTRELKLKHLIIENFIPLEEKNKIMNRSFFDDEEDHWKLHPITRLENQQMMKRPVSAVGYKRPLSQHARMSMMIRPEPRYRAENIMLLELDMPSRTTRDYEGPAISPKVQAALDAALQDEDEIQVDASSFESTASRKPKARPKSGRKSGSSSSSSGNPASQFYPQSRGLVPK
UniProt P62260: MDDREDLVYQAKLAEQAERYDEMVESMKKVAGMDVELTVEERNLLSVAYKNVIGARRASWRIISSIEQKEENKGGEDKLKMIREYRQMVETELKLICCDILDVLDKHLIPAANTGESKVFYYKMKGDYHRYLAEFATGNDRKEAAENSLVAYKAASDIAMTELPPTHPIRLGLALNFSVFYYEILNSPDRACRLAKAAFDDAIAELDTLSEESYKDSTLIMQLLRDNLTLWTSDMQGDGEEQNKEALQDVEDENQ

This assay deals with GST-tagged recombinant tail domain of KIF3B (mouse) (UniProt Q61771). Description: pull-down.

For “14-3-3ε from rat brain extract (from UniProt P62260 1-255)”, the binding entry was “binds weakly”.

The values above are taken from paper doi:10.1101/2025.08.20.671056.
